Assay results reported in patent US20060111342A1, “Insecticidal tricyclic derivatives” (priority 2002, published 2006).
At least one structure is not confirmed: it was looked up by name or label, or the drawing left a doubt. Some ranges recur; such a range may be that of the whole group of compounds.

system: cotton aphid (Aphis gossypii); assay: Cotton aphid mortality on sprayed cotton plants, assessed after 24 hours (Table 2); format: in vivo; conditions: rate of application 100 ppm
Description: The compounds of formula I useful in the present invention were tested for insecticidal activity by observing mortality in a population of cotton aphid (Aphis gossypii) on treated cotton plants caused by a test compound, when compared to like populations of cotton aphid on untreated plants. These tests were conducted in the following manner:
For each rate of application of test compound, two seven-to-ten days old cotton seedlings (Gossypium hirsutium) grown in 7.6 cm diameter pots were selected for the test. Each test plant was infested with about 120 adult cotton aphids by placing onto each test plant cuttings of leaves from cotton plants grown in a cotton aphid colony. Once infested, the test plants were maintained for up to about 12 hours to allow complete translocation of the aphids onto the test plant. A solution comprising 1000 part per million (ppm) of each test compound was prepared by dissolving 10 milligrams of the test compound in 1 mL of acetone. Each solution was then diluted with 9 mL of a solution of 0.03 mL of polyoxyethylene(10) isooctylphenyl ether in 100 mL of water. About 2.5 mL of solution of each test compound was needed to spray each replicate of test plant (5 mL total for each test compound). If needed, the solution of 1000 ppm of test compound was serially diluted with a solution of 10% acetone and 300 ppm of polyoxyethylene(10) isooctylphenyl ether in water to provide solutions of each test compound for lower rates of application, for example, 300 ppm, 100 ppm, 30 ppm, or 10 ppm. Each replicate of test plant was sprayed with the solutions of test compound until run-off on both the upper and lower surfaces of the leaves. All the test plants were sprayed using a DeVilbus Atomizer Model 152 (Sunrise Medical, Carlsbad, Calif.) at a pressure of about 0.63-0.74 kilogram per square centimeter from a distance of about 30.5 centimeters from the test plants. For comparison purposes, a solution of a standard, such as amitraz or demethylchlordimeform (DCDM), prepared in a manner analogous to that set forth above, as well as a solution of 10% acetone and 300 ppm of polyoxyethylene(10) isooctylphenyl ether in water containing no test compound were also sprayed onto test plants. Upon completion of spraying the solutions of test compound, the solution of standard, and the solution containing no test compound, the plants were allowed to dry. Upon completion of drying, the test plants were placed in a tray containing about 2.5 centimeters of water, where they were maintained in a growth chamber for 24 hours. After this time, each plant was assessed for percent mortality caused by the test compound when compared to the population of aphids that was infested onto the test plants prior to treatment with test compound. […] If there was 75% mortality or greater of the cotton aphid, a test compound was designated as being more insecticidally active (A).
The test compounds of formula I are identified by numbers that correspond to those in Table 1.

| Compound | Mortality of Cotton Aphid On Cotton Plants: More Than 75% Mortality (A) | Mortality of Cotton Aphid On Cotton Plants: 20% to 75% Mortality (SA) |
| --- | --- | --- |
| CN1CCN(C2Cc3ccccc3Sc3c(F)cc(Cl)cc32)CC1.O=S(O)S(=O)(=O)O (stereo not shown) [Compound 96] | X (More Than 75% Mortality (A)) | – |
| CN1CCN(C2Cc3ccccc3Sc3c(F)ccc(F)c32)CC1 (stereo not shown) [Compound 97] | X (More Than 75% Mortality (A)) | – |
| CCc1ccc2c(c1)C(N1CCN(C)CC1)Cc1ccccc1S2.O=S(=O)(O)O (stereo not shown) [Compound 98] | X (More Than 75% Mortality (A)) | – |
| COc1ccc2c(c1)Sc1ccccc1CC2N1CCN(C)CC1 (stereo not shown) [Compound 101] | – | X (20% to 75% Mortality (SA)) |
| COc1cccc2c1Sc1ccccc1CC2N1CCN(C)CC1 (stereo not shown) [Compound 102] | – | X (20% to 75% Mortality (SA)) |
| CSc1ccc2c(c1)C(N1CCN(C)CC1)Cc1ccccc1S2.O=C(O)/C=C\C(=O)O (stereo not shown) [Compound 103] | X (More Than 75% Mortality (A)) | – |
| CN1CCN(C2Cc3ccccc3Sc3ccc(C(F)(F)F)cc32)CC1 (stereo not shown) [Compound 105] | X (More Than 75% Mortality (A)) | – |
| CN1CCN(C2Cc3ccccc3Sc3ccc(OC(F)(F)F)cc32)CC1 (stereo not shown) [Compound 106, 11-(4-methylpiperazinyl)-2-(trifluoromethoxy)-10H, 11H-dibenzo[b,f]thiopane] | X (More Than 75% Mortality (A)) | – |
| C[N+]1([O-])CCN(C2Cc3ccccc3Sc3ccc(OC(F)(F)F)cc32)CC1 (stereo not shown) [Compound 107] | X (More Than 75% Mortality (A)) | – |
| CN1CCN(C2Cc3ccc(F)cc3Sc3ccc(OC(F)(F)F)cc32)CC1 (stereo not shown) [Compound 108] | X (More Than 75% Mortality (A)) | – |
| CN1CCN(C2Cc3ccccc3Sc3ccc(OC(F)(F)C(F)F)cc32)CC1 (stereo not shown) [Compound 109] | X (More Than 75% Mortality (A)) | – |
| CN1CCN(C2Cc3ccccc3Sc3c2ccc(Cl)c3Cl)CC1.O=C(O)/C=C\C(=O)O (stereo not shown) [Compound 110] | X (More Than 75% Mortality (A)) | – |
| Cc1cc2c(cc1F)Sc1ccccc1CC2N1CCN(C)CC1 (stereo not shown) [Compound 111] | X (More Than 75% Mortality (A)) | – |
| CN1CCN(C2Cc3ccccc3Sc3cccc(C4CC4)c32)CC1 (stereo not shown) [Compound 112] | X (More Than 75% Mortality (A)) | – |
| CN1CCN(C2Cc3ccccc3Sc3ccc(C4CCCC4)cc32)CC1 (stereo not shown) [Compound 113] | X (More Than 75% Mortality (A)) | – |
| CC(=O)c1ccc2c(c1)C(N1CCN(C)CC1)Cc1ccccc1S2 (stereo not shown) [Compound 115] | X (More Than 75% Mortality (A)) | – |

| Compound | Mortality of Cotton Aphid On Cotton Plants: More Than 75% Mortality (A) | Mortality of Cotton Aphid On Cotton Plants: 20% to 75% Mortality (SA) |
| --- | --- | --- |
| CN1CCN(C2Cc3cc(F)ccc3Sc3ccccc32)CC1 (stereo not shown) [Compound 118] | X (More Than 75% Mortality (A)) | – |
| CN1CCN(C2Cc3ccc(F)cc3Sc3ccccc32)CC1 (stereo not shown) [Compound 119] | X (More Than 75% Mortality (A)) | – |
| CSc1ccc2c(c1)C(N1CCN(C)CC1)Cc1cc(F)ccc1S2 (stereo not shown) [Compound 122] | X (More Than 75% Mortality (A)) | – |
| CCSc1ccc2c(c1)C(N1CCN(C)CC1)Cc1ccc(F)cc1S2 (stereo not shown) [Compound 124] | X (More Than 75% Mortality (A)) | – |
| CN1CCN(C2Cc3ccc(F)cc3Sc3ccc(C(F)(F)F)cc32)CC1.O=C(O)/C=C\C(=O)O.O=C(O)/C=C\C(=O)O (stereo not shown) [Compound 125] | X (More Than 75% Mortality (A)) | – |
| CC(C)c1ccc2c(c1)C(N1CCN(C)CC1)Cc1ccc(F)cc1S2 (stereo not shown) [Compound 127] | X (More Than 75% Mortality (A)) | – |
| CC(C)c1ccc2c(c1)C(N1CCN(C)CC1)Cc1ccc(F)cc1S2.O=C(O)/C=C\C(=O)O (stereo not shown) [Compound 128] | X (More Than 75% Mortality (A)) | – |
| CSc1ccc2c(c1)C(N1CCN(Cc3ccncc3)CC1)Cc1ccccc1S2 (stereo not shown) [Compound 173] | X (More Than 75% Mortality (A)) | – |
| CSc1ccc2c(c1)C(N1CCCN(C)CC1)Cc1ccccc1S2 (stereo not shown) [Compound 183] | X (More Than 75% Mortality (A)) | – |
| CN1CCCN(C2Cc3ccccc3Sc3ccc(OC(F)(F)F)cc32)CC1 (stereo not shown) [Compound 185] | X (More Than 75% Mortality (A)) | – |
| CN1CCCN(C2Cc3ccccc3Oc3ccc(OC(F)(F)F)cc32)CC1 (stereo not shown) [Compound 186] | X (More Than 75% Mortality (A)) | – |
| CC(Cc1ccccc1)NCCCN1c2ccccc2Sc2ccc(Cl)cc21.O=C(O)/C=C\C(=O)O (stereo not shown) [Compound 203] | X (More Than 75% Mortality (A)) | – |
| CN(C)CCCN1c2ccccc2Sc2ccc(Cl)cc21.Cl [Compound 204] | – | X (20% to 75% Mortality (SA)) |
| COc1ccc2c(c1)N(CCCN(C)C)c1ccccc1S2 [Compound 205] | X (More Than 75% Mortality (A)) | – |
| CC(=O)c1ccc2c(c1)N(CCCN(C)C)c1ccccc1S2.O=C(O)/C=C\C(=O)O [Compound 206] | X (More Than 75% Mortality (A)) | – |
| CN1CCN(CCCN2c3ccccc3Sc3ccc(C(F)(F)F)cc32)CC1.Cl.Cl [Compound 207] | X (More Than 75% Mortality (A)) | – |

same assay, conditions: rate of application 1000 ppm

| Compound | Mortality of Cotton Aphid On Cotton Plants: More Than 75% Mortality (A) | Mortality of Cotton Aphid On Cotton Plants: 20% to 75% Mortality (SA) |
| --- | --- | --- |
| CN1CCN(C2Cc3ccccc3Sc3cc(F)c(Cl)cc32)CC1 (stereo not shown) [Compound 95] | X (More Than 75% Mortality (A)) | – |
| CN1CCN(C2Cc3ccccc3Sc3ccc(N)cc32)CC1 (stereo not shown) [Compound 114] | X (More Than 75% Mortality (A)) | – |
| CN1CCN(C2Cc3c(F)cccc3Sc3ccccc32)CC1 (stereo not shown) [Compound 116] | X (More Than 75% Mortality (A)) | – |
| CN1CCN(C2Cc3cccc(F)c3Sc3ccccc32)CC1 (stereo not shown) [Compound 120] | X (More Than 75% Mortality (A)) | – |
| CN1CCN(C2Cc3cc(F)ccc3Sc3ccc(Cl)cc32)CC1 (stereo not shown) [Compound 121] | – | X (20% to 75% Mortality (SA)) |
| CC(C)c1ccc2c(c1)C(N1CCN(C)CC1)Cc1ccc(F)cc1[S+]2[O-] (stereo not shown) [Compound 129] | X (More Than 75% Mortality (A)) | – |
| CSc1ccc2c(c1)C(N1CCN(Cc3ccccc3)CC1)Cc1ccccc1S2 (stereo not shown) [Compound 170] | X (More Than 75% Mortality (A)) | – |
| CSc1ccc2c(c1)C(N1CCN(c3ccncc3)CC1)Cc1ccccc1S2 (stereo not shown) [Compound 172] | – | X (20% to 75% Mortality (SA)) |
| CN(C)C1CCN(C2Cc3ccccc3Sc3ccc(OC(F)(F)F)cc32)C1 (stereo not shown) [Compound 178] | X (More Than 75% Mortality (A)) | – |
| CN1CCN(C2=Nc3ccccc3Sc3ccc(Cl)cc32)CC1 [Compound 189] | X (More Than 75% Mortality (A)) | – |
| CN1CCN(C2=Nc3ccccc3[S+]([O-])c3ccc(Cl)cc32)CC1 (stereo not shown) [Compound 190] | X (More Than 75% Mortality (A)) | – |
| C=CCN1CCN(C2=Nc3ccccc3Sc3ccc(Cl)cc32)CC1 [Compound 191] | X (More Than 75% Mortality (A)) | – |
| CC(C)c1ccc2c(c1)C(N1CCN(C)CC1)=Nc1ccccc1S2 [Compound 193, 2-(methylethyl)-11-(4-methylpiperazinyl)dibenzo[b,f]1,4-thiazepine] | X (More Than 75% Mortality (A)) | – |
| CN1CCN(C2=Nc3ccccc3Sc3ccc(OC(F)(F)F)cc32)CC1 [Compound 194] | X (More Than 75% Mortality (A)) | – |
